{"source": "PubChem BioAssay AID540276", "about": "(National Center for Advancing Translational Sciences (NCATS), 2011)", "note": "In all, about 300,000 compounds went through this assay and about 5,400 (1.8%) were called active. The inconclusive results got no clear call from the source; some entries with a clear call stand among them for comparison. Calls follow the shape of the full dose curve; tested in HEK293 cells. Potencies beside an inconclusive call are fits to weak or partial responses and may not hold up. Potency is read from the fitted curve at half-maximal effect."}
{"test": "qHTS for inhibitors of binding or entry into cells for Marburg Virus", "conditions": "Marburg virus pseudotyped entry inhibition, cell reporter; series mostly up to 37.8 µM"}
{"compound": "Cc1ccc(N2CCN(CCc3ccccc3)CC2)cc1", "Potency": "inconclusive: 29.1 µM [inhibitor, single point]"}
{"compound": "CSCCC(=O)N1CCC(n2nccc2NC(=O)c2ccc3c(c2)OCO3)CC1", "Potency": "inconclusive: 1.41 µM [activator, partial curve, poor fit]"}
{"compound": "CN(Cc1cnn(C)c1)C(=O)c1cc(COc2c(F)cccc2F)on1", "Potency": "inactive"}
{"compound": "COc1ccc(/C=N/OCC(=O)NC(c2ccccc2)c2ccccc2)c(OC)c1", "Potency": "inconclusive: 20 µM [inhibitor, partial curve]"}
{"compound": "Nc1cc(=O)[nH]c(SCC(=O)N2N=C(c3ccc(Cl)cc3)CC2c2ccco2)n1", "note": "(stereo not drawn)", "Potency": "inactive"}
{"compound": "O=C1NC(c2ccccc2)(C(F)(F)F)C(=O)N1Cc1cccnc1", "note": "(stereo not drawn)", "Potency": "inconclusive: 0.794 µM [inhibitor, partial curve, poor fit]"}
{"compound": "O=C(NCc1cccs1)c1csc2c1CCCCC2", "Potency": "inactive"}
{"compound": "CCOc1cc(CN2CCN(c3cccc(C(F)(F)F)c3)CC2)ccc1O", "Potency": "active: 16.4 µM"}
{"compound": "Cc1ccc(C)c(-n2c(Cc3cc(=O)[nH]c(=O)[nH]3)nnc2SCC(=O)NCC2CCCO2)c1", "note": "(stereo not drawn)", "Potency": "inconclusive: 16.4 µM [activator, partial curve, poor fit]"}
{"compound": "COc1ccc2oc(=O)cc(CN3CCN(C(=O)c4ccccc4Br)CC3)c2c1", "Potency": "inactive"}
{"compound": "CC1(C)CCc2cc(-c3ccnc(=S)[nH]3)ccc2O1", "Potency": "inconclusive: 7.94 µM [inhibitor, partial curve, poor fit]"}
{"compound": "CCN(CC)c1ccc(N=Cc2c(O)n(CCC3=CCCCC3)c(=O)[nH]c2=O)cc1", "Potency": "inconclusive: 13 µM [inhibitor, partial curve, poor fit]"}
{"compound": "O=C(NC(=S)NCC1CCCO1)c1ccccc1Br", "note": "(stereo not drawn)", "Potency": "inconclusive: 7.94 µM [activator, partial curve, poor fit]"}
{"compound": "O=C(N1CCN(Cc2ccccc2)CC1)C12CC3CC(CC(C3)C1)C2", "Potency": "inconclusive: 11.2 µM [inhibitor, partial curve, poor fit]"}
{"compound": "C=CCn1c(C)cc(C(=O)CSc2nc3ccccc3c(=O)[nH]2)c1C", "Potency": "inconclusive: 10 µM [inhibitor, partial curve, poor fit]"}
{"compound": "Oc1ccccc1-c1nc(/C=C/c2ccccc2)nn1-c1ccccc1", "Potency": "inconclusive: 7.31 µM [inhibitor, partial curve, poor fit]"}
{"compound": "COC(=O)COc1ccc(S(=O)(=O)N2CCCCC2)cc1[N+](=O)[O-]", "Potency": "inactive"}
{"compound": "CCN1CCn2c3c(c4cc(Cl)ccc42)CCCC31", "note": "(stereo not drawn)", "Potency": "inconclusive: 0.316 µM [activator, partial curve, poor fit]"}
{"compound": "Cc1ccccc1NC(=O)c1onc2c1CCCC2", "Potency": "inactive"}
{"compound": "Cc1nc(-n2nc(C)c(CCC(C)C)c2C)sc1C(=O)Nc1cccc(Cl)c1C", "Potency": "inactive"}
{"compound": "Cc1ccc(OCCNc2cc(N3CCN(CCO)CC3)ccc2[N+](=O)[O-])cc1C", "Potency": "inconclusive: 25.9 µM [inhibitor, single point]"}
{"compound": "Cc1cccc(C(=O)N2CCN(c3ncnc4c3cnn4-c3ccccc3)CC2)c1", "Potency": "inconclusive: 14.1 µM [inhibitor, single point]"}
{"compound": "OCC1OC(n2ccc3c(NO)ncnc32)C(O)C1O", "note": "(stereo not drawn)", "Potency": "active: 0.316 µM"}
{"compound": "CCOC(=O)c1c(NC(=O)c2ccccc2C)sc2c1CCCC2", "Potency": "inactive"}
{"compound": "Cc1cc(NC(=O)Nc2ccccc2Cl)no1", "Potency": "inactive"}
{"compound": "CCN(CC)C(=O)COC(=O)c1cc(-c2ccc(OC)cc2)nc2ccccc12", "Potency": "inconclusive: 20.6 µM [inhibitor, single point]"}
{"compound": "CNC(=O)CSc1nnc(SCCC(=O)O)s1", "Potency": "inconclusive: 35.5 µM [activator, single point]"}
{"compound": "COc1cc(C(=O)OCC(=O)N2CCCCC2C)cc(NC(=O)c2cccs2)c1OC", "note": "(stereo not drawn)", "Potency": "inconclusive: 8.91 µM [inhibitor, partial curve, poor fit]"}
{"compound": "CCN1CCN(c2ccc(S(=O)(=O)N3CCCCC3)cc2NC(=O)CC(C)c2ccccc2)CC1", "note": "(stereo not drawn)", "Potency": "inconclusive: 35.5 µM [inhibitor, single point]"}
{"compound": "OCCC1CN(Cc2ccccc2O)CCN1CCc1ccccc1", "note": "(stereo not drawn)", "Potency": "inconclusive: 35.5 µM [inhibitor, single point]"}
{"compound": "COCCn1c(=S)[nH]c2cc(C(=O)NC(C)C)ccc2c1=O", "Potency": "inconclusive: 0.0366 µM [inhibitor, full curve, poor fit]"}
{"compound": "O=C(Nc1cccc(F)c1)c1ccc2ncsc2c1", "Potency": "inconclusive: 0.562 µM [activator, full curve, poor fit]"}
{"compound": "COC(=O)c1sccc1NC(=O)CSc1ccccc1NC(=O)CNC(C)C", "Potency": "inconclusive: 1 µM [inhibitor, full curve, poor fit]"}
{"compound": "CCOc1ccc(Nc2cc(C)c(C#N)c3nc4ccccc4n23)cc1", "Potency": "inactive"}
{"compound": "Cc1ccc(NC(=O)NCCN2CCCCC2)cc1Cl", "Potency": "inconclusive: 11.2 µM [inhibitor, partial curve, poor fit]"}
{"compound": "Cc1ccc(C(C)C)c(OCc2ccc(C(=O)Nc3ccc(S(N)(=O)=O)cc3C)o2)c1", "Potency": "inconclusive: 8.91 µM [inhibitor, partial curve, poor fit]"}
{"compound": "Cn1c(Cc2cccc3ccccc23)nnc1SCC(=O)N1CCN(c2cccc(Cl)c2)CC1", "Potency": "active: 12.6 µM"}
{"compound": "CCN(C(=O)COC(=O)c1cccc(S(=O)(=O)N2CCOCC2)c1)C1CCS(=O)(=O)C1", "note": "(stereo not drawn)", "Potency": "inconclusive: 14.1 µM [activator, single point]"}
{"compound": "COc1cc(CCN2C(=O)N[C@@H](c3ccccc3)C(C(C)=O)=C2C)cc(OC)c1OC", "Potency": "inactive"}
{"compound": "Cc1ccc2c(c1)C(c1ccncc1)=NNC(c1ccc(F)cc1)=N2", "Potency": "inactive"}
{"compound": "Cc1ccc(S(=O)(=O)c2nc(-c3ccco3)oc2SCC(=O)c2ccc(Cl)cc2)cc1", "Potency": "inconclusive: 1 µM [inhibitor, full curve, poor fit]"}
{"compound": "CCN(CC)S(=O)(=O)c1ccc(N2CCCC2)c(NC(=O)CN2C(=O)NC3(CCCC3)C2=O)c1", "Potency": "inconclusive: 0.398 µM [inhibitor, full curve, poor fit]"}
{"compound": "Cc1cccc(NCc2ccc(O)c3ncccc23)c1C", "Potency": "inconclusive: 25.1 µM [inhibitor, single point]"}
